This experiment has as its target T1, Spy_(29-124) (UniProt P77754).
T1 sequence: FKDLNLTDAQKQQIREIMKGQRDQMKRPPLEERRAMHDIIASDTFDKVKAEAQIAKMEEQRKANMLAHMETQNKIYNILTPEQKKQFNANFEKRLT
Nature of the experiment: NMR titration; 0.1 mM [15N]-Spy_(29-124) with unlabeled peptide at molar ratios 1:2 to 1:40; 2D 1H-15N HSQC; 40 mM HEPES-NaOH, 150 mM NaCl, pH 7.5, 25 °C; one-site binding model; both purified.

Results are given in words; binding and its absence hold for the method and conditions named. Some results given as binding are weak or reduced against the parent protein; the word gives no strength.

As to ADTTTAAPADAKPMMHHKGKFGPHQKMM (peptide, UniProt P77754 24-51, looked up, Spy of E. coli, residues 1-28 with D26K) [Nt-pep D26K], the binding result is given as “binds weakly”.

Turning to ADTTTAAPADAKPMMHHKGKFGPHQRMM (peptide, UniProt P77754 24-51, looked up, Spy of E. coli, residues 1-28 with D26R) [Nt-pep D26R], the binding result was “binds weakly”.

The values are drawn from paper PMC9122904, “Insights into the client protein release mechanism of the ATP-independent chaperone Spy” (Nature Communications, 2022).
